The record followed here is paper PMC6018666.

By UniProt entry, the sequences of proteins in these tests, tags left out. Residues count along the entry.
UniProt P09651, 1-196: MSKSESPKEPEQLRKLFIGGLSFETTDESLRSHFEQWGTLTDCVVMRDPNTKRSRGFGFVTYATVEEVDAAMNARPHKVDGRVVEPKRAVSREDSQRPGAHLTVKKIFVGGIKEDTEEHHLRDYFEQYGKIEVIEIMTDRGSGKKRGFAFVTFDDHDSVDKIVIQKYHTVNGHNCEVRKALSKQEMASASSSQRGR
UniProt P09651, 1-196 E66C: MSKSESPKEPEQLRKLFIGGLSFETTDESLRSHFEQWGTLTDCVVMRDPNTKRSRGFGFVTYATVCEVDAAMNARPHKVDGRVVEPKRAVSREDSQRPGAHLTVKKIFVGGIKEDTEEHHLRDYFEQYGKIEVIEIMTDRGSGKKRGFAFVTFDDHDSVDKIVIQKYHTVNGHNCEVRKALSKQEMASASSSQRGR

The exact form of at least one protein or probe is not confirmed. At least one verdict rests on a figure or table, not on a statement of the authors.

For data set [1], the target named is UP1 (hnRNP A1 RRM1-RRM2) (UniProt P09651). Nature of the data set: SAXS. Conditions: recombinant protein; residues 1-196; protein details: His tag removed by TEV.
The target of data set [2] is UP1 E66C spin-labeled (UniProt P09651). Nature of the data set: NMR PRE. The conditions noted are these: recombinant protein; residues 1-196; protein details: spin label at C66, His tag removed by TEV.

On to AGUAGAUUAGCA [12-mer], for which the binding result in data set [1] and in data set [2] was “binds” throughout.
